# Values from PubChem BioAssay AID602196 (INSERM, 2012)
# Screen: 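Knock-downs that protect lung cancer cells from cisplatin or sensitise them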
# Cell system: human A549 lung cancer cells
# Reagent: siRNA pair against human genes
# Timing: 48 h transfection before cisplatin; time from cisplatin to read-out not stated
# Conditions: cisplatin at a dose killing half of control-siRNA cells; exact dose and duration not given
# Measurement: 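Cisplatin cell death as a shift from the 50% death seen with control siRNA; siRNAs toxic or growth-blocking alone scored 0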
# Scale: two-siRNA summed score (-2 to +2): higher = both siRNAs protect from cisplatin killing; -2 means both sensitise; mean protection from cisplatin (shift in death) and protection from cisplatin (shift in death), siRNA C and protection from cisplatin (shift in death), siRNA D: higher = protection from cisplatin killing
# Active means: 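siRNAs harmful alone (LDH or WST-1) get 0; others get +1 for less and -1 for more cisplatin killing; genes are active when the two siRNAs give the same sign, summing to ±2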
# Meaning of the calls: active = both siRNAs shift cisplatin killing the same way; inactive = no consistent shift, or siRNA harmful alone
# Here is a random part of about 23,000 reagents. Of all reagents, 455 (2%) are marked active. 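Active includes both protection and sensitisation; some change values fall well beyond the stated -50 to +50 range.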 Not stated in the record: the amount of reagent.
gene symbol,two-siRNA summed score (-2 to +2),mean protection from cisplatin (shift in death) (%),"protection from cisplatin (shift in death), siRNA C (%)","protection from cisplatin (shift in death), siRNA D (%)",call
TTN,-1,-12.1,-8.7,-15.4,inactive
YPEL3,0,-3.2,-6.6,0.3,inactive
ANXA4,0,1.7,3.1,0.3,inactive
WDFY3,0,5.7,-2.9,14.2,inactive
EPOR,1,11.9,27.7,-3.9,inactive
C19orf44,0,6.9,6.8,7,inactive
OR2T5,0,13,17.9,8,inactive
THUMPD3-AS1,0,4.3,8.2,0.3,inactive
SLC6A19,0,-0.8,20,-21.6,inactive
MYH2,0,-4.7,-0.6,-8.9,inactive
MYO1E,0,9.3,10,8.7,inactive
DNAJC7,-1,-4,-18.7,10.7,inactive
LOC400704,0,4.9,3.5,6.3,inactive
PDE8B,-1,-7.4,-18.4,3.6,inactive
LOC441740,2,21.1,13.5,28.7,active
LOC389069,0,0.2,-4.1,4.6,inactive
MED19,0,4.2,24.6,-16.2,inactive
ARL15,0,8.1,9.6,6.6,inactive
LOC392473,0,4.3,4.2,4.3,inactive
ITFG1,0,-1.1,-5.3,3,inactive
LOC402633,0,10.1,3.9,16.3,inactive
TSNAX,0,1,-2.1,4.2,inactive
CNTN3,0,9.1,-0.9,19.1,inactive
TRIM45,1,13.3,10.7,16,inactive
KDM5C,0,-21.4,-27.5,-15.2,inactive
ENTREP3,0,-0.1,-7.7,7.5,inactive
LOC389991,0,7.2,13,1.3,inactive
GPR137,0,-4.6,-3.9,-5.4,inactive
FYB2,0,4.8,4.1,5.5,inactive
SRCIN1,-1,-3.1,8.9,-15,inactive
NRSN1,0,-10,-8.1,-11.9,inactive
C11orf58,0,11.7,9.5,14,inactive
CETN2,0,9.1,9,9.1,inactive
THG1L,0,0.2,7.7,-7.3,inactive
LOC402031,0,14.9,12.3,17.6,inactive
C10orf88,0,5,1.4,8.6,inactive
KRT38,0,-3.6,-1.8,-5.5,inactive
EPCIP-AS1,0,16,16.1,15.9,inactive
TTI2,-1,-8.7,-0.6,-16.8,inactive

Copied from the entries so far, 4 entries:
gene symbol,two-siRNA summed score (-2 to +2),mean protection from cisplatin (shift in death) (%),"protection from cisplatin (shift in death), siRNA C (%)","protection from cisplatin (shift in death), siRNA D (%)",call
C19orf44,0,6.9,6.8,7,inactive
OR2T5,0,13,17.9,8,inactive
THUMPD3-AS1,0,4.3,8.2,0.3,inactive
SLC6A19,0,-0.8,20,-21.6,inactive
